Measured values from US10017480B2, “Compounds having a selective PDE4D inhibiting activity” (UNIVERSITÂ DEGLI STUDI DI GENOVA, priority 2014, dated 2018).

Tested on: spatial object memory performance
Test: OLT dose-response experiment
Assay type: in vivo
Conditions: mean (SEM)

OC(CN1CCOCC1)Cn1ccc(-c2ccc(OC(F)F)c(OC3CCCC3)c2)n1 (centres unmarked) [XXIIa, 1-{3-[3-(cyclopentyloxy)-4-(difluoromethoxy)phenyl]-1H-pyrazol-1-yl}-3-morpholin-4-ylpropan-2-ol]
e1 (mean exploration in T1) (0.0003 mg/kg): 28.51 (3.13) s
e2 (mean exploration in T2) (0.0003 mg/kg): 25.91 (2.73) s
e1 (mean exploration in T1) (0.001 mg/kg): 33.78 (2.82) s
e2 (mean exploration in T2) (0.001 mg/kg): 29.07 (2.30) s
e1 (mean exploration in T1) (0.003 mg/kg): 37.85 (4.62) s
e2 (mean exploration in T2) (0.003 mg/kg): 35.82 (2.82) s
e1 (mean exploration in T1) (0.01 mg/kg): 34.24 (3.12) s
e2 (mean exploration in T2) (0.01 mg/kg): 30.32 (2.14) s
